# According to PubChem BioAssay AID212 (DTP/NCI, 2004):
# The list does not hold the whole screen: it gathers some chemical classes. Not every dose and run of a compound is shown. T/C: endpoint of the treated group in % of that of the vehicle group. Schedules are NCI's codes, read here as Q, the interval in days (D) or hours (H), X, the number of doses. Some T/C values carry the count of animals alive at the toxicity check; where neither a count nor a note follows, no animal had died by that day. Some entries hold several experiments; their values stand side by side, smallest first. Brackets with × give the number of equal values in this list. Some T/C values are marked as having no survivor count here; that says nothing about deaths at the dose. Some entries give survivors of the animals treated and no T/C: the source files T/C as zero there, which appears to mark a toxic dose or a test without result, not a measured value. Counts of survivors are from the toxicity check, whose day is not always given; animals may have died later.
# Tested on: BDF1 mice, colon carcinoma 38 sc, T/C %
# Assay: NCI In Vivo Anticancer Drug Screen. Data for tumor model Colon Carcinoma 38 (subcutaneous) in B6D2F1 (BDF1) mice
# Conditions: T/C endpoint: median tumor weight (est.), schedule: Q07DX002 (ip), higher T/C = larger tumour
# Experimental: The antitumor activity of compounds was measured in mice bearing transplantable tumors. Survival or tumor size were measured and the results are expressed as the measurement made in the treated group (T) divided by the measurement made in the vehicle treated control group (C). The tumor model used in this assay is Colon Carcinoma 38 (subcutaneous) in B6D2F1 (BDF1) mice
# [1] = dose: 50.0 mg/kg/injection, vehicle: Klucel (hydroxypropylcellulose) (HPC), evaluated on day 20
# [2] = dose: 100.0 mg/kg/injection, vehicle: Klucel (hydroxypropylcellulose) (HPC), evaluated on day 20
# [3] = dose: 200.0 mg/kg/injection, vehicle: Klucel (hydroxypropylcellulose) (HPC), evaluated on day 20
# [4] = dose: 400.0 mg/kg/injection, vehicle: Klucel (hydroxypropylcellulose) (HPC), evaluated on day 20
# [5] = dose: 800.0 mg/kg/injection, vehicle: Klucel (hydroxypropylcellulose) (HPC), evaluated on day 20
# [6] = dose: 20.0 mg/kg/injection, vehicle: Klucel (hydroxypropylcellulose) (HPC), evaluated on day 20
# [7] = dose: 40.0 mg/kg/injection, vehicle: Klucel (hydroxypropylcellulose) (HPC), evaluated on day 20
# [8] = dose: 25.0 mg/kg/injection, vehicle: Klucel (hydroxypropylcellulose) (HPC), evaluation day not shown
# [9] = dose: 50.0 mg/kg/injection, vehicle: Klucel (hydroxypropylcellulose) (HPC), evaluation day not shown
structure (smiles),measurement,setting,value
N#CC(C#N)=Cc1ccc(N(CCCl)CCCl)cc1,T/C,[1],100 and 116 % of control
same,T/C,[2],64 and 82 % of control (2×)
same,T/C,[3],"38, 61 [9 of 10 alive on day 20], 75 % of control"
same,T/C,[4],"45 [9 of 10 alive on day 20], 47, 88 % of control [9 of 10 alive on day 20]"
same,T/C,[5],"7, 9, 36 % of control"
ClCCN(CCCl)c1ccc(Oc2ccccc2)cc1,T/C,[1],124 % of control [9 of 10 alive on day 20]
same,T/C,[2],124 % of control
same,T/C,[3],95 % of control
same,T/C,[4],130 % of control
same,T/C,[5],77 % of control
N#Cc1ccc(N(CCCl)CCCl)cc1,T/C,[1],100 % of control
same,T/C,[2],75 % of control
same,T/C,[3],76 % of control
same,T/C,[4],83 % of control [9 of 10 alive on day 20]
same,T/C,[5],76 % of control
Nc1cc(N)cc(N(CCCl)CCCl)c1,T/C,"dose: 5.0 mg/kg/injection, vehicle: Klucel (hydroxypropylcellulose) (HPC), evaluated on day 20",126 % of control
same,T/C,[6],89 % of control
same,T/C,[7],66 % of control
COc1ccc(N(CCCl)CCCl)cc1,T/C,"dose: 12.5 mg/kg/injection, vehicle: Klucel (hydroxypropylcellulose) (HPC), evaluation day not shown",145 % of control [survivor count not shown]
same,T/C,[6],79 % of control
same,T/C,[8],67 % of control [survivor count not shown]
same,T/C,"dose: 31.25 mg/kg/injection, vehicle: Klucel (hydroxypropylcellulose) (HPC), evaluated on day 20",102 % of control
same,T/C,[7],56 % of control
same,T/C,[9],118 % of control [survivor count not shown]
same,T/C,"dose: 62.5 mg/kg/injection, vehicle: Klucel (hydroxypropylcellulose) (HPC), evaluated on day 20",90 % of control
same,T/C,"dose: 80.0 mg/kg/injection, vehicle: Klucel (hydroxypropylcellulose) (HPC), evaluated on day 20",38 % of control
same,T/C,"dose: 125.0 mg/kg/injection, vehicle: Klucel (hydroxypropylcellulose) (HPC), evaluated on day 20",45 % of control [7 of 10 alive on day 20]
same,T/C,"dose: 160.0 mg/kg/injection, vehicle: Klucel (hydroxypropylcellulose) (HPC), evaluated on day 20",30 % of control [7 of 10 alive on day 20]
same,survivor count,"dose: 250.0 mg/kg/injection, vehicle: Klucel (hydroxypropylcellulose) (HPC)",3 of 10 on day 20
same,survivor count,"dose: 320.0 mg/kg/injection, vehicle: Klucel (hydroxypropylcellulose) (HPC)",0 of 10 on day 20
C[N+](CCCl)(CCCl)Cc1ccc([N+](=O)[O-])cc1,T/C,"dose: 3.12 mg/kg/injection, vehicle: saline, evaluated on day 20",153 % of control
same,T/C,"dose: 6.25 mg/kg/injection, vehicle: saline, evaluated on day 20",142 % of control
same,T/C,"dose: 12.5 mg/kg/injection, vehicle: saline, evaluated on day 20",167 % of control
same,T/C,"dose: 25.0 mg/kg/injection, vehicle: saline, evaluated on day 20",150 % of control
O=NN(CCSCCCl)C(=O)NC1CCCCC1,T/C,"dose: 6.25 mg/kg/injection, vehicle: saline with Tween-80, evaluated on day 20",94 % of control
same,T/C,"dose: 12.5 mg/kg/injection, vehicle: saline with Tween-80, evaluated on day 20",79 and 86 % of control
same,T/C,"dose: 25.0 mg/kg/injection, vehicle: saline with Tween-80, evaluated on day 20",88 and 102 % of control
same,T/C,"dose: 50.0 mg/kg/injection, vehicle: saline with Tween-80, evaluated on day 20",67 % of control
Cc1ccc(N(CCCl)CCCl)cc1,T/C,[1],83 % of control [9 of 10 alive on day 20]
same,T/C,[2],83 % of control [8 of 10 alive on day 20]
same,T/C,[3],82 % of control [9 of 10 alive on day 20]
same,T/C,[4],43 % of control
same,survivor count,"dose: 800.0 mg/kg/injection, vehicle: Klucel (hydroxypropylcellulose) (HPC)",0 of 10 on day 20
ClCCN(CCCl)c1ccc(Cl)cc1,T/C,"dose: 12.5 mg/kg/injection, vehicle: Klucel (hydroxypropylcellulose) (HPC), evaluated on day 20",77 % of control
same,T/C,"dose: 25.0 mg/kg/injection, vehicle: Klucel (hydroxypropylcellulose) (HPC), evaluated on day 20",66 % of control [9 of 10 alive on day 20]
same,T/C,[8],97 % of control [survivor count not shown]
same,T/C,[1],80 and 82 % of control
same,T/C,[9],197 % of control [survivor count not shown]
same,T/C,[2],83 and 101 % of control
same,T/C,"dose: 100.0 mg/kg/injection, vehicle: Klucel (hydroxypropylcellulose) (HPC), evaluation day not shown",129 % of control [survivor count not shown]
same,T/C,[3],80 and 173 % of control [9 of 10 alive on day 20]
same,T/C,"dose: 200.0 mg/kg/injection, vehicle: Klucel (hydroxypropylcellulose) (HPC), evaluation day not shown",118 % of control [survivor count not shown]
same,T/C,[4],85 and 113 % of control
same,T/C,[5],151 % of control
